Assay results as given in paper PMC7862700.
The list shows a part of the results. Construct or isoform of the protein are uncertain.

What follows are sequences tested against T1, ELF2 (UniProt Q15723) (assay: DAPPL (digital affinity profiling via proximity ligation, sequencing)). Settings: 10 mM Tris-HCl pH 7.5, 50 mM NaCl, 1 mM DTT, 4% glycerol, room temperature, 30 min; GST-TFs on glutathione beads, 16-mer random dsDNA library, 0.1% …; high values mean tight binding; double strand, one strand shown; scale: fold enrichment (6-mer frequency, TF over GST control).
T1 sequence: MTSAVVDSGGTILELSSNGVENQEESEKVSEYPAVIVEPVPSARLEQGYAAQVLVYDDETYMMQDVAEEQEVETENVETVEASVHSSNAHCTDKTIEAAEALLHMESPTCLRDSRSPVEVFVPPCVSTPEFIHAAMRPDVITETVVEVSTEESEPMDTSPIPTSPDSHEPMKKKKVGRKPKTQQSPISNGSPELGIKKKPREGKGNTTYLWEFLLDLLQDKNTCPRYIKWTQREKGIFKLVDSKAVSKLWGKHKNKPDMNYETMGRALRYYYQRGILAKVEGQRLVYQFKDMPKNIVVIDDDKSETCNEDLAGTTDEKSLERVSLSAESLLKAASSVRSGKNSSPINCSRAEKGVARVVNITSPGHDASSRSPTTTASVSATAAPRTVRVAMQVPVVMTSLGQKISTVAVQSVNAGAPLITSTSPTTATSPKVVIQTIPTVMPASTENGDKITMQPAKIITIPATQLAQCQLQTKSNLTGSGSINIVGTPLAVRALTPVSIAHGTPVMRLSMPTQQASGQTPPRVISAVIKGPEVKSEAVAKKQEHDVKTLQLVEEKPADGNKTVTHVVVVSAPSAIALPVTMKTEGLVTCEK

Sequence	binding signal
GTTAAT	1.11
TCGAAG	0.837
CTTTAT	1.19
TTTAAG	1.31
ATTCTC	1.3
ATGCGA	1.19
GAATTA	1.1
CGTTTT	1.24
TAGCAA	1.17
TTCTGG	1.22
AATCAG	1.14
AGCACT	1.4
CTGTAT	1.3
GGAATG	0.858
AGCCTA	1.03
TCTTAT	1.21
TCAGCT	1.03
ACAACT	1.38
CTTCCG	12.8
ATTATC	1.33

Sequence	binding signal
GGTTAA	0.886
AGAACA	1.03
CTGTAC	1.34
CAAATC	1.08
CAGATC	0.845
TCTATC	1.18
TCTACC	1.59
CAATTC	1.36
CCTTCA	1.35
GCTTCC	5.33
TTTTCT	1.29
GATAAG	0.923
TATACG	1.27
GGCTTT	0.941
GCGCTT	1.4
GATTAG	0.813
CTTAGC	1.17
AAAACG	1.19
CTTCAC	1.35
AAGCAT	1.09

Random excerpt: three entries already listed, in no set order.
Sequence	binding signal
GATAAG	0.923
AATCAG	1.14
AAAACG	1.19
